This note sets out measurements from PubChem BioAssay AID493014 (National Center for Advancing Translational Sciences (NCATS), 2011).

The AC50 is the concentration at which the activity in the assay is half-maximal.

SMILES strings stand for the structures. Some of the results follow. These are further read-outs of the screen, such as a control signal, another cell line or another target. No call is given for them. The list favours compounds with an active or inconclusive main result. Words in brackets tell the shape of the fitted curve; partial curves, single points and poor fits give uncertain potencies. Numbered stars: 1 amine (or outer) side, 2 acyl side, 3 side chain; on linkers, the order of the positions; unused ones are H or OH. Square brackets hold non-standard residues; d marks the D form. Peptide text beside a SMILES is read from it. X2 = CCC[C@@H](N[*:1])[C@H](C)C(=O)O[C@H](C(=O)[*:2])[C@@H](C)CC; X1 = CC(N[*:1])C(=O)C(C)(C)C(=O)[*:2]; NMeY = CN[C@@H](Cc1ccc(O)cc1)C(=O)O; NMeL = CN[C@@H](CC(C)C)C(=O)O; NMeV = CN[C@H](C(=O)O)C(C)C; NMeA = CN[C@@H](C)C(=O)O

The test is described as follows: qHTS Assay to Find Inhibitors of Chronic Active B-Cell Receptor Signaling. Particulars: ABC-DLBCL IkBa-CBG/CBR reporter, luminescence ratio (green luciferase fused to IkBa over red control in TMD8 lymphoma cells), 4 h. The gist of the method:
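Doxycycline induced both beetle luciferases in TMD8 lymphoma cells; IKK-driven degradation limits the IkappaBalpha-fused green signal, while red luminescence normalises for cell number and nonspecific effects. Compounds tested up to 46 uM, 4 hrs.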
(In qHTS, concentration-response curves come from the screen itself.)

Where [1] appears, read: measured here: CBR red luminescence, cell number.
The mark [2] stands for this setting: measured here: IkBa-CBG green luminescence.

`C/C(=N/NC(=O)CNC(=O)c1ccccn1)c1ccccc1`: under setting [1], the AC50 is 13 µM [rising, partial curve, poor fit].

As to `Cc1ccc(C2NNC(=O)C2NC(=O)c2ccccc2)cc1` (stereo unspecified), the AC50 under setting [1] is 25.9 µM [falling, partial curve].

In the case of `CCOC(=O)c1ccc(NC(=O)CCS(=O)(=O)Cc2ccccc2)cc1`, the AC50 under setting [1] is 0.708 µM [rising, partial curve, poor fit].

Take `Nc1c(Cl)cc(C2=NCCn3c2c2ccc(C(F)(F)F)cc2[n+]3[O-])cc1Cl`: under setting [1], the AC50 was 25.9 µM [falling, single point].

Consider `c1ccc2cc3[nH]c(CN4CCOCC4)nc3cc2c1`, for which the AC50 under setting [1] is 29.1 µM [falling, single point].

With `O=C1CSC(=O)N1CC(O)COc1ccc(Cl)cc1` (stereo unspecified), under setting [1], the AC50 is 12.6 µM [rising, single point].

As for `Cn1c(=O)c2[nH]c(COc3ccc(C(C)(C)C)cc3)nc2n(C)c1=O`, the half-maximal activity concentration (AC50) under setting [1] was 6.31 µM [falling, single point].

`CC(/C=N/NC(=O)c1ccc2nc(C)[nH]c2c1)=C\c1ccccc1`: the AC50 under setting [1] is 11.6 µM [falling, partial curve, poor fit].

Consider `Cc1[nH]c2ccccc2c1/C=N/NC(=O)c1cccs1`, for which, under setting [1], the AC50 is 17.8 µM [falling, partial curve, poor fit].

`CCOc1ccccc1N1CCN(C(=O)c2c(-c3ccccc3Cl)noc2C)CC1`: under setting [2], the AC50 was 4.11 µM [falling, partial curve, poor fit].

As for `CCCCn1c2c(c3ccccc31)CCc1nonc1-2`, under setting [1], the AC50 was 29.1 µM [rising, single point].

Regarding `COc1cccc2sc(Nc3nnc(-c4ccccc4Cl)o3)nc12`, the AC50 under setting [1] was 7.31 µM [falling, partial curve] and the half-maximal activity concentration (AC50) under setting [2] is 20.6 µM [falling, partial curve, poor fit].

Consider `CCSc1ccccc1-c1nc(-c2ccncc2)no1`, for which, under setting [1], the AC50 is 5.62 µM [rising, single point].

For the compound `CCOc1ccc(S(=O)(=O)Nc2cnc3ccccc3c2)cc1`, the AC50 under setting [1] is 3.16 µM [falling, single point].

In the case of `Cc1cccc(/C(N)=N/OC(=O)CCC2CCCCC2)c1`, the AC50 under setting [1] is 8.2 µM [rising, partial curve].

As to `C(=N\c1ncnc2sccc12)/NOCc1ccccc1`, the concentration at half-maximal activity (AC50) reads like this: under setting [1], 11.6 µM [falling, partial curve, poor fit]; under setting [2], 16.4 µM [rising, partial curve, poor fit].

For the compound `CCOC(=O)C(CC)Sc1nnc2[nH]c(=O)cc(C)n12` (stereo unspecified), the AC50 under setting [1] is 7.94 µM [rising, partial curve, poor fit].

`COC(=O)c1ccc(CNC(=O)c2ccc(OCC(=O)N3CCOCC3)c(OC)c2)cc1`: the AC50 under setting [1] is 0.58 µM [rising, partial curve, poor fit].

Regarding `CCCCC(C(=O)NC1CCCC1)N(C(=O)c1snc(C(N)=O)c1N)c1ccc(OCC)cc1` (stereo unspecified), under setting [1], the AC50 is 0.794 µM [falling, full curve, poor fit].

As for `CCCc1cc2c(=O)c(-c3ccccn3)c(C)oc2cc1O`, the AC50 under setting [1] is 31.6 µM [rising, single point].

Consider `O=C(CSC1=NS(=O)(=O)c2ccccc2N1)Nc1nccs1`, for which the AC50 under setting [1] was 8.2 µM [falling, partial curve, poor fit].

On to `Nc1ccccc1C(=O)NNC(=O)C(=O)/C=C(\O)c1ccccc1`, for which, under setting [1], the AC50 was 2 µM [falling, full curve].

Turning to `CSC1=NSC2=NC(=O)/C(=C/c3coc4ccccc4c3=O)C(=N)N12`, the AC50 under setting [1] was 14.6 µM [falling, partial curve].

As to `O=C(c1ccccc1F)N(Cc1cccnc1)Cc1cc2cc3c(cc2[nH]c1=O)OCCO3`, under setting [1], the AC50 was 35.5 µM [rising, single point].

Turning to `O=C(Nc1ccc(Cl)cc1)c1ccc(Br)cc1F`, the half-maximal activity concentration (AC50) under setting [1] is 15.8 µM [falling, single point].

`NC(=O)NC(=O)COC(=O)c1ccc2noc(-c3ccccc3)c2c1`: the AC50 under setting [1] is 11.2 µM [falling, partial curve, poor fit].

As to `Cc1ccccc1NC1=C(Cl)C(=O)OC1OC(=O)c1ccccc1C` (stereo unspecified), the AC50 under setting [1] was 35.5 µM [falling, single point].

For `O=C(NCC(=O)N1CCCC1)c1ccc(Br)cc1`, the AC50 under setting [1] was 15.8 µM [rising, partial curve, poor fit].

For `CCN(C(=O)c1cc2cc(OC)ccc2oc1=O)c1ccccc1`, the AC50 under setting [1] was 3.66 µM [rising, full curve, poor fit].

Take `Cc1cccc(Cn2c(N(C)CCO)nc3c2c(=O)[nH]c(=O)n3C)c1`: the AC50 under setting [1] was 6.51 µM [rising, single point].

Regarding `CCOC(=O)N1CCC(N2C(=O)c3ccccc3C2Nc2c(C)cccc2C)CC1` (stereo unspecified), the AC50 under setting [1] was 0.58 µM [falling, partial curve, poor fit].

Consider `COc1ccc(/C=N/Nc2nnc(C)n2N)cc1OC`, for which, under setting [1], the AC50 was 35.5 µM [falling, single point].

Regarding `COc1cc(C)nc(OCCNS(=O)(=O)c2cc(C)ccc2C)n1`, under setting [1], the half-maximal activity concentration (AC50) is 0.651 µM [falling, full curve, poor fit].

As to `CCC[C@H]1NC(=O)[C@H](C)N(C)C(=O)C(C)(C)C(=O)C(C)NC(=O)[C@H](Cc2ccc(OC)cc2)N(C)C(=O)[C@H](C(C)C)N(C)C(=O)CNC(=O)[C@H](CC(C)C)N(C)C(=O)CNC(=O)[C@H]([C@@H](C)CC)OC(=O)[C@H]1C` (stereo partly specified) (cyclo(G[NMeL]G[NMeV][NMeY](Me)[X1][NMeA][X2])), the AC50 under setting [1] is 0.259 µM [rising, full curve, poor fit].

As for `Cc1ccccc1NC(=S)NCCSc1ccc(Cl)cc1`, under setting [1], the AC50 was 6.31 µM [rising, single point].

As for `O=C(N/N=C/c1cn(-c2cccs2)nc1-c1ccccc1)c1ccccc1Cl`, the AC50 under setting [1] is 11.6 µM [falling, partial curve] and the AC50 under setting [2] was 3.66 µM [rising, full curve, poor fit].

Regarding `CCc1ccc(NC(=O)CSc2nc3[nH]ncc3c(=O)[nH]2)cc1`, the AC50 under setting [1] was 15.8 µM [falling, partial curve, poor fit].

Turning to `CCOc1cc(/C=C2\SC(=O)N=C2N)ccc1O`, the half-maximal activity concentration (AC50) under setting [1] is 11.6 µM [falling, partial curve].

Consider `Cc1cccc(C(=O)Nc2sc3c(c2C(=O)O)CCCC3)c1`, for which, under setting [1], the AC50 was 0.282 µM [falling, full curve].

For `COc1ccc(-n2c3c(cc(C(=O)Nc4cccc(C)n4)c2=O)C(=O)CC(C)(C)C3)cc1`, under setting [1], the AC50 was 22.4 µM [falling, single point].

As for `O=[N+]([O-])c1cccc(C2NCC(c3ccccc3Cl)c3c2[nH]c2ccccc32)c1` (stereo unspecified), the AC50 under setting [1] is 11.2 µM [falling, partial curve].

For `CCCCCCCC[n+]1cccc2c3ccccc3ccc21`, the concentration at half-maximal activity (AC50) under setting [1] is 10 µM [falling, partial curve] and the AC50 under setting [2] is 12.6 µM [rising, partial curve, poor fit].

Take `CCNc1nc(Oc2ccc(C(=O)OC)cc2)nc(N2CCOCC2)n1`: under setting [1], the AC50 was 14.1 µM [falling, single point].

Turning to `CC(=O)c1c(C)[nH]c(C(=O)NCc2ccc(F)cc2)c1C`, the half-maximal activity concentration (AC50) under setting [1] is 2.82 µM [rising, partial curve, poor fit].

Regarding `CC(C)N(C(=O)COC(=O)c1cc(Cl)cc(Cl)c1N)C(C)C`, the AC50 under setting [1] was 29.1 µM [rising, single point].

Turning to `O=C(NCC(c1cccs1)N1CCOCC1)c1cc(-c2ccc(F)cc2)nc2ccccc12` (stereo unspecified), the AC50 under setting [1] was 35.5 µM [falling, single point].

On to `COCCCn1c(=O)c2ccccc2n(Cc2ccccc2C)c1=O`, for which the AC50 under setting [1] was 35.5 µM [rising, single point].

On to `COc1ccccc1CNC(=O)C1Cc2ccccc2C(=O)O1` (stereo unspecified), for which the AC50 under setting [1] is 20 µM [falling, single point].

Consider `Cn1cccc1C(=O)N1CCN(c2cccc(C(F)(F)F)c2)CC1`, for which, under setting [1], the AC50 was 29.1 µM [rising, single point].

With `O=C(c1cnc2nc3ccccc3n2c1)c1cc(F)ccc1O`, under setting [1], the AC50 was 4.47 µM [falling, partial curve, poor fit].

For `CN(C)CCNC(=O)c1onc(CSc2ccc(F)c(F)c2)c1C(=O)NCCN(C)C`, the AC50 under setting [1] was 35.5 µM [falling, single point].

Consider `C=CCSc1ncnc2sc(C)c(C)c12`, for which the AC50 under setting [1] is 16.4 µM [rising, partial curve].

Consider `CNC(=O)N(C1=NCC(C)S1)c1ccc(F)cc1F` (stereo unspecified), for which the AC50 under setting [1] was 2.06 µM [rising, partial curve, poor fit].

Regarding `COc1cc(/C=C(\C#N)C(=O)c2ccc(O)c(O)c2)cc(I)c1O`, the AC50 under setting [1] is 29.1 µM [falling, single point].

For the compound `COc1ccc(C(=O)NCCNc2ccc([N+](=O)[O-])cc2)cc1OC`, the AC50 under setting [1] is 6.31 µM [rising, partial curve, poor fit].

`CC(=O)Nc1ccc(N/C=C/C(=O)C(C)(C)C)cc1`: under setting [1], the AC50 is 7.31 µM [rising, partial curve, poor fit].

As for `CNc1ccccc1C(=O)OCC(=O)c1ccc(F)cc1`, under setting [1], the AC50 is 12.6 µM [falling, partial curve].

`CC(=O)Nc1ccc(C2=NN(C)C(=NCc3ccccc3)SC2)cc1`: the AC50 under setting [1] is 20 µM [rising, partial curve, poor fit].

As to `CCc1ccccc1N1C(=O)CC(N2CCc3ccccc32)C1=O` (stereo unspecified), the AC50 under setting [1] is 7.94 µM [falling, partial curve].

`COc1cccc(NC(=O)CC2Oc3ccccc3NC2=O)c1` (stereo unspecified): the AC50 under setting [1] is 28.2 µM [falling, single point].

For the compound `COc1cccc(NC(=O)c2oc3ccc(S(=O)(=O)N4CCOCC4)cc3c2C)c1`, the AC50 under setting [1] is 11.2 µM [falling, partial curve, poor fit].

Turning to `CN1CCN(c2cc(N3CCN(C(=O)c4ccco4)CC3)c3c4c(onc24)-c2ccccc2C3=O)CC1`, the AC50 under setting [1] was 25.1 µM [falling, single point].
